## Screening data, single-dose tests

Sequences of proteins named here, by UniProt entry; tags and fusion partners are left off. Residues count along the entry.
UniProt P9WPC5, whole entry: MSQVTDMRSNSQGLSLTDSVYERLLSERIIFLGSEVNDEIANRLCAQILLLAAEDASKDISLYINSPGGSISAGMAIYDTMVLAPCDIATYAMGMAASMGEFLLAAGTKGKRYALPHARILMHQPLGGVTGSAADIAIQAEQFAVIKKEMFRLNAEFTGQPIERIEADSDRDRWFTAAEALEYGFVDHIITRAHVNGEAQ
UniProt P9WPC3, whole entry partner: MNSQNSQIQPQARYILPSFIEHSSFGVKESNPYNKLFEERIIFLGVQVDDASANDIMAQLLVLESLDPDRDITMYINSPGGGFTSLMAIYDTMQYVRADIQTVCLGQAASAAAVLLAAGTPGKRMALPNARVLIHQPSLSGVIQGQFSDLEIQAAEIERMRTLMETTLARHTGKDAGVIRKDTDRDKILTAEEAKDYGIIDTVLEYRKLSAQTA
UniProt P9WNZ1, whole entry: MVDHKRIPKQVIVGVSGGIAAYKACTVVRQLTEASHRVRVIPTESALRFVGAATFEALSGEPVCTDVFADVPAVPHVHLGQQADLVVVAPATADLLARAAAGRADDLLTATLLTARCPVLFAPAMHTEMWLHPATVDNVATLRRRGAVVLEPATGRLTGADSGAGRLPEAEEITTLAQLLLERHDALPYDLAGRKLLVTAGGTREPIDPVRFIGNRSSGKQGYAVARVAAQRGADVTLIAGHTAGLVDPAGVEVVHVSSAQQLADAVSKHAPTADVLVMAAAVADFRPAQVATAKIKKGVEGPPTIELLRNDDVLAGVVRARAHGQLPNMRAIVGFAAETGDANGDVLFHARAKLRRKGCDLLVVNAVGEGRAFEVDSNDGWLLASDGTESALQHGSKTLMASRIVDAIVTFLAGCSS
UniProt Q8IDJ8, 1-583: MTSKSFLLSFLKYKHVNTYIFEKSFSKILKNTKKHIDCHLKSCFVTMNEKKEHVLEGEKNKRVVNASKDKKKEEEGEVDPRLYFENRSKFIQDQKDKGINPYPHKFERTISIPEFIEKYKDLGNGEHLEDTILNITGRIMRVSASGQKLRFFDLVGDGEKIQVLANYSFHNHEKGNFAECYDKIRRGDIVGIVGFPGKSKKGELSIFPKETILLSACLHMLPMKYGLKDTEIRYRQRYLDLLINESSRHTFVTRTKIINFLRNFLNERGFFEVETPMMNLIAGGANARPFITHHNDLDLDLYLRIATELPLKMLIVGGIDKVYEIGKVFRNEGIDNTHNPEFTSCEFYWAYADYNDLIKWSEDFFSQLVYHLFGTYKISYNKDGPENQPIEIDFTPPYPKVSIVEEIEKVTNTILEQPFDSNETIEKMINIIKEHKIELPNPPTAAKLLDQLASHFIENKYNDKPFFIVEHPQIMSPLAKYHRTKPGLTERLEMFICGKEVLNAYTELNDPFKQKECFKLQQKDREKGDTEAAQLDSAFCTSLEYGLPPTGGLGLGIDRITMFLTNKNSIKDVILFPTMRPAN
UniProt Q4DA54, 1-478: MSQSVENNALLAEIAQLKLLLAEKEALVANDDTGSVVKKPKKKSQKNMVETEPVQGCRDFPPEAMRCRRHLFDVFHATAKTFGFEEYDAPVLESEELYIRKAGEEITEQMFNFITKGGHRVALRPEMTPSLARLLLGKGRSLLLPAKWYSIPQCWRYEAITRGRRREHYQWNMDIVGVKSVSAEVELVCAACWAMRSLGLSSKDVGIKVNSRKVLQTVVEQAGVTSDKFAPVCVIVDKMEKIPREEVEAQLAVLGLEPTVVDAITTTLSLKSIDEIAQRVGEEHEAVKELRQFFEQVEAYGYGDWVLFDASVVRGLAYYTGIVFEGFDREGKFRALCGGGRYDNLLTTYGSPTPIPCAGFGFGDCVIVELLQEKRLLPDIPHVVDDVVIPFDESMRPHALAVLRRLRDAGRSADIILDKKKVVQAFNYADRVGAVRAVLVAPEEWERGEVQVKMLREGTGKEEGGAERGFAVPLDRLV
UniProt I6X8D2, whole entry: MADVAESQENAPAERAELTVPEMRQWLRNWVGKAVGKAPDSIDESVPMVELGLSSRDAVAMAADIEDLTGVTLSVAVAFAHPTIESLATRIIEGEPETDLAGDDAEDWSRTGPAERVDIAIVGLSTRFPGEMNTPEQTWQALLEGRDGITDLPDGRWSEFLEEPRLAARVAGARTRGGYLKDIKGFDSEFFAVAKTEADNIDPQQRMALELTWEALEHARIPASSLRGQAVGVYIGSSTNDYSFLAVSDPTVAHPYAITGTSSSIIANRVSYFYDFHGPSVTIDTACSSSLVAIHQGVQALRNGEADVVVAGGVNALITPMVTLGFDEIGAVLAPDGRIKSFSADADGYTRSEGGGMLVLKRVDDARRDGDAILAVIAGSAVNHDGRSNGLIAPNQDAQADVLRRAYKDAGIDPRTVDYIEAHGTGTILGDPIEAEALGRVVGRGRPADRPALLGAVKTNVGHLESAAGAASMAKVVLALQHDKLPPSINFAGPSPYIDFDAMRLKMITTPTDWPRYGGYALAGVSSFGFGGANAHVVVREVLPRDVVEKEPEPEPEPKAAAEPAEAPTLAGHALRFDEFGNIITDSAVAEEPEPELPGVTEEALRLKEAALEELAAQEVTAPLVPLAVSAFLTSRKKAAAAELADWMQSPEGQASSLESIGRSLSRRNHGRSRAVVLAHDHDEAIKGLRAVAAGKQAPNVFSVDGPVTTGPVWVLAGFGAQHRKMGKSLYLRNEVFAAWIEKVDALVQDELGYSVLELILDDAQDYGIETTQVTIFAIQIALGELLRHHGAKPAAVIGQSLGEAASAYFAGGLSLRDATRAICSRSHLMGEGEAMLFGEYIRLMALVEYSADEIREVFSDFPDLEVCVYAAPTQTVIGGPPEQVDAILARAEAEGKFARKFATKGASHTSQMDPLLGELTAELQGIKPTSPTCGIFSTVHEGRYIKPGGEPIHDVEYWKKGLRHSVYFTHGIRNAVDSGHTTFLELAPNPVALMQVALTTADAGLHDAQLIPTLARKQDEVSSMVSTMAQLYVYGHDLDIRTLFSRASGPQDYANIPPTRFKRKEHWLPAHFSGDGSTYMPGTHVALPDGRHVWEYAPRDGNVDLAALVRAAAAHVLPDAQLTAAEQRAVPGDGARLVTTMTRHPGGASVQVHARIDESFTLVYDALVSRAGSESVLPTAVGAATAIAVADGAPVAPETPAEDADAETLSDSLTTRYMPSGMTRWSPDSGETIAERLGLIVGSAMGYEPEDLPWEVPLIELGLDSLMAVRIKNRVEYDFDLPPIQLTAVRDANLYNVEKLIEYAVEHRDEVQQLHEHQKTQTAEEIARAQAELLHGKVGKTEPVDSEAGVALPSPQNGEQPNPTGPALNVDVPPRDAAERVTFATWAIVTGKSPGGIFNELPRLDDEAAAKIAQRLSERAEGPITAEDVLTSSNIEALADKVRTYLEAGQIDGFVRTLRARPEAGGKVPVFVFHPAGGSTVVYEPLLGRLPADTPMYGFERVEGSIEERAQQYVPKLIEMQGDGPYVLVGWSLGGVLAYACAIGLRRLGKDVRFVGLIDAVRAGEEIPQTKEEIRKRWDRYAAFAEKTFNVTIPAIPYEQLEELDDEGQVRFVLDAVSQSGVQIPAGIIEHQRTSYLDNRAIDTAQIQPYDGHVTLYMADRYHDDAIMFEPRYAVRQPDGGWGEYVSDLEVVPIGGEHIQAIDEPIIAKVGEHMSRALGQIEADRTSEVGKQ

Source: ChEMBL document CHEMBL3988442, “University of Dundee, Small-Polar-MMV Screening Library” (2021).

A: 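Protease assay of ClpP1P2, read by the AMC dye that it sets free. Target: ClpP1P2, Mycobacterium tuberculosis (UniProt P9WPC5 and UniProt P9WPC3). Compounds at 50 µM. Higher reads as stronger inhibition, judged from the few compounds that gave an IC50. Most other retested compounds had strongly negative values. Size under these conditions: about 69,000 compounds, about 10 of them at 50% or above in at least one test.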
B: 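Enzyme assay of CoaBC with a phosphate dye (Biomol Green) read at 650 nm. Target: Coenzyme A biosynthesis protein CoaBC, Mycobacterium tuberculosis (UniProt P9WNZ1). Tested at 30 µM. Higher reads as stronger inhibition, judged from the few compounds that gave an IC50. Most strong results did not repeat in a second test. Of about 67,000 compounds tested this way, about 40 (0.06%) reached 50% or more in at least one test.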
C: 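Enzyme assay of the cytosolic lysyl-tRNA synthetase in 384-well plates, read by luminescence. Target: Lysine-tRNA ligase, Plasmodium falciparum 3D7 (UniProt Q8IDJ8). Tested at 30 µM. Higher reads as stronger inhibition, judged from the few compounds that gave an IC50. About 69,000 compounds were tested under these conditions; 0.071% (about 49) showed 50% or more at least once.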
D: 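Enzyme assay of histidyl-tRNA synthetase; the read-out is not stated. Target: Histidine-tRNA ligase, Trypanosoma cruzi CL Brener (UniProt Q4DA54). Compounds at 30 µM. Direction is inferred from retests: higher values go with stronger inhibition. Of about 69,000 compounds tested this way, about 31 (0.045%) reached 50% or more in at least one test.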
E: 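Enzyme assay of the thioesterase domain of polyketide synthase 13; the read-out is not stated. Target: Polyketide synthase Pks13, Mycobacterium tuberculosis (UniProt I6X8D2). Compounds at 30 µM. Higher reads as stronger inhibition (inferred from which compounds were picked for retests). Of about 67,000 compounds tested this way, about 300 (0.46%) reached 50% or more in at least one test.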

Results are given as percent effect.
How 0% and 100% were set is not recorded. Most values in the screen are low, and negative values occur.
This is an unselected part of the compounds tested.

compound	A	B	C	D	E
CC(=O)N1CCN(c2cc(N3CCOCC3)cnn2)CC1	-12.41%	-3.065%	5.587%	2.424%	-17.26%
CCN(C1CCN(Cc2ncc(C(C)(C)C)o2)CC1)S(C)(=O)=O	3.727%	4.28%	4.847%	0%	-11.94%
Cc1cncc(C(=O)N2CCCC(C(=O)CCc3ccccc3)C2)c1 (stereo not given)	-2.689%	-4.051%	5.297%	4.132%	-11.92%
Cc1n[nH]c(C)c1CC(=O)N1CCC2(CC1)CN(C)CCN2C	-4.595%	0.3628%	6.594%	7.143%	-3.92%
COc1cccn(CC(=O)N(C)CCC2CCOCC2)c1=O	8.098%	-1.707%	-5.15%	5.882%	6.504%
CCN1CCN(C[C@@H]2CN(c3ncccc3C(F)(F)F)C[C@@H]2CO)CC1	-14.9%	2.733%	4.414%	-1.538%	-2.951%
CCCn1cnc(NC(=O)NCC2CCS(=O)(=O)C2)n1 (stereo not given)	-4.588%	-6.488%	-4.001%	-2.062%	-52.86%
c1cnc(N2CCN(C3CCC[C@@H]4CN(CC5CC5)C[C@H]34)CC2)nc1 (stereo not given in full)	-20.08%	-7.818%	2.362%	10.78%	4.712%
CC(C)(C)n1ncc2c(=O)[nH]c(N3CCC4(CCCCC4)C3)nc21	-4.304%	6.364%	0.6003%	7.027%	-26.31%
CCc1ccc(C2COCCN2C(=O)Nc2ccc(C(N)=O)c(Cl)c2)o1 (stereo not given)	4.631%	-2.439%	0.6725%	7.792%	-16.61%
O=C(NCCN1CCNC1=O)c1cnc(-c2cccnc2)nc1	-8.896%	2.265%	2.596%	10.05%	-5.099%
CC1(C)CN(C(=O)c2ncc(F)cc2F)CCC1(O)CN1CCOCC1 (stereo not given)	0.04129%	-2.857%	2.793%	1.031%	-31.63%
CN1CCCC(N(C)C(=O)c2ccc(NC(=O)c3ccc[nH]3)cc2)C1 (stereo not given)	-4.082%	-4.208%	4.024%	10.84%	0.6234%
CN1CCCCC1CCC(=O)NCCCn1nccc1C1CC1 (stereo not given)	-8.322%	-1.141%	6.183%	3.879%	-26.95%
CC(NCC1(N(C)C)CCOCC1)c1ccc(S(C)(=O)=O)cc1 (stereo not given)	-0.6236%	-4.698%	2.172%	3.093%	-2.159%
CCc1cc(O)n2nc(C3CCN(C(=O)c4ccncc4)CC3)cc2n1	11.13%	-5.179%	2.745%	4.545%	-8.219%
Cc1cc(CN2CCc3nn(C)c(=O)cc3C2)no1	1.941%	-2.218%	5.179%	-1.087%	-9.239%
O=C(NCc1ccc(C(=O)N2CCCC2)cc1)c1cn2c(n1)CNCC2	-5.285%	-4.019%	1.94%	12.5%	5.115%
Cc1nc2c(c(NC(C)C)n1)CCN(C(=O)c1cc[nH]n1)CC2	-4.594%	3.75%	1.196%	-5.882%	-4.999%
CSCc1noc(CNC(=O)C2CCN(C(=O)C3CCC3)CC2)n1	2.928%	-2.985%	-0.3909%	2.051%	-18.18%
Cc1[nH]c2c(F)cccc2c1CC(=O)NCc1csc(N(C)C)n1	5.134%	-0.6031%	2.071%	3.518%	-7.452%
CN(CCc1ccccc1)Cc1nc(Cc2cccc(F)c2)no1	-16.24%	-1.023%	-0.6016%	9.091%	24.21%
N#Cc1cccnc1OC1CCN(S(=O)(=O)c2ccc(Br)cc2)CC1	-12.25%	3.944%	3.366%	-11.06%	31.58%
CN1CCCC(Cc2cncc(Br)c2)CC1 (stereo not given)	-8.647%	-1.111%	4.317%	1.622%	-40.05%
NC1(CN2CCOCC2)CCCCC1	-3.747%	-25.65%	0.2179%	4.615%	-1.013%
c1csc(NCc2n[nH]c3c2CCN(CC2CC2)C3)n1	-13.54%	7.268%	-0.06054%	7.317%	2.503%
O=C1CCN(C(=O)C2(c3ccc(Br)cc3)CC2)CCN1	-8.732%	1.242%	-0.7677%	-8.718%	-34.82%
O=C(NCCc1ccccc1)N1CCCCC1C1OCCO1 (stereo not given)	-10.98%	4.628%	3.625%	6.18%	-2.403%
CN(Cc1csc(-c2cnn(C)c2)n1)CC1CCN(CCO)CC1	-4.928%	2.155%	0.1624%	4.142%	-37.91%
COc1cc(CNCCc2nc(C)cs2)cc2c1OCCO2	2.619%	-2.128%	1.298%	1.901%	0.01832%
O=C(Nc1ccccn1)C1CCN(C(=O)COc2ccccc2F)C1 (stereo not given)	18.41%	-0.7299%	-1.175%	2.239%	22.62%
Cc1ccc(N2CC3(CCN(Cc4nccn4C)C3)CC2=O)s1 (stereo not given)	10.96%	4.326%	3.389%	9.184%	-5.245%
O=C([C@H]1COC[C@H]2CN(C3CCCC3)C[C@H]21)N1CCOCC1	-4.81%	4.926%	1.969%	-12.37%	-5.454%
C1CC(CN2C[C@@H]3C[C@@H](c4nnc(C5CC5)o4)O[C@@H]3C2)C1	-11.8%	2.343%	-2.736%	0%	-32.24%
CCNC(=O)CCC(=O)Nc1ccc2nn(C(C)C)cc2c1	0.4674%	2.657%	4.278%	4.516%	6.016%
CN1CCN(c2ncnc3c2CCN(c2ncc(F)cn2)CC3)CC1	-11.78%	2.5%	6.42%	6.952%	-4.77%

Once more, the final 4:

compound	A	B	C	D	E
O=C([C@H]1COC[C@H]2CN(C3CCCC3)C[C@H]21)N1CCOCC1	-4.81%	4.926%	1.969%	-12.37%	-5.454%
C1CC(CN2C[C@@H]3C[C@@H](c4nnc(C5CC5)o4)O[C@@H]3C2)C1	-11.8%	2.343%	-2.736%	0%	-32.24%
CCNC(=O)CCC(=O)Nc1ccc2nn(C(C)C)cc2c1	0.4674%	2.657%	4.278%	4.516%	6.016%
CN1CCN(c2ncnc3c2CCN(c2ncc(F)cn2)CC3)CC1	-11.78%	2.5%	6.42%	6.952%	-4.77%